For this assay, the system named is JmjC demethylases and related 2OG oxygenases. The assay is described as follows: Screen across the 2OG oxygenase panel. In kind it is biochemical, human. As to conditions: % inhibition of the enzyme at 20 μM compound, AlphaScreen; described in words. (In general: Bead proximity is the source of the signal in Alpha formats.)

As to `O=C(CCCCCCC(=O)Nc1ccccc1)NO` [compound 15, suberoylanilide hydroxamic acid], the “inhibition across the panel (heatmap, in words)” value was “inhibited several histone demethylases”.

The values are drawn from article PMC4673902 (Journal of medicinal chemistry, 2012).
